Reference: patent US20230273222A1
These are yes or no findings as the source states them, for the method shown. Some entries that bind do so weakly or less than the wild type.

Protein sequences, listed by entry. Tags and fused reporters are not part of them. Residues count along the entry.
UniProt P20333, residues 23-257: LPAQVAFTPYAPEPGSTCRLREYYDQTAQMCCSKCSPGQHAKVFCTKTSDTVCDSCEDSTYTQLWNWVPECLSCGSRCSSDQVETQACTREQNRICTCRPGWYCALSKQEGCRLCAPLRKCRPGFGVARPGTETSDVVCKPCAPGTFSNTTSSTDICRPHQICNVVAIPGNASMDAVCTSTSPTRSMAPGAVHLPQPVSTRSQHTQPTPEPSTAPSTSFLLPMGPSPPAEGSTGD

Biological target: T1, Lymphotoxin-alpha (human) (UniProt P01374)
T1 sequence (looked up): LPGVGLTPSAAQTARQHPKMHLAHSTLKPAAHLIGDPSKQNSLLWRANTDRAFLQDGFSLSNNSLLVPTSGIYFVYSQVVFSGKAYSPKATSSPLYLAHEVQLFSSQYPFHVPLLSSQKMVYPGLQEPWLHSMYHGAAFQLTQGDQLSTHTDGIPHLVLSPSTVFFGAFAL
Assay: protein microarray, immobilized Fc fusion capturing fluorescently labeled plasma proteins

## Fc-Tumor necrosis factor receptor superfamily member 1B-fusion protein (from UniProt P20333 23-257) (Fc fusion)
  binding: binds
